The values below come from article PMC8421415.

Sequences of proteins named here, by UniProt entry; tags and fusion partners are left off.
UniProt O88597: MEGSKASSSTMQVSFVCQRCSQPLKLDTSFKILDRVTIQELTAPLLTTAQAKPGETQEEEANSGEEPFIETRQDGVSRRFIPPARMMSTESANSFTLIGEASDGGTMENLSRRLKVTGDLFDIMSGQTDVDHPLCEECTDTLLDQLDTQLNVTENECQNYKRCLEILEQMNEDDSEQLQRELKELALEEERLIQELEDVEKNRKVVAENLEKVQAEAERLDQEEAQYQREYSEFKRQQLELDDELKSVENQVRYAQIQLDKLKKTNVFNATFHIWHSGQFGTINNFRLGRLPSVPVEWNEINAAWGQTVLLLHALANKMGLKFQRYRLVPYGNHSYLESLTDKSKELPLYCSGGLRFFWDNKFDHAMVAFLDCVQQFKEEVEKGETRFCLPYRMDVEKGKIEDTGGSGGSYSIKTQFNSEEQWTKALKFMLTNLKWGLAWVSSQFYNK
UniProt Q6PF93: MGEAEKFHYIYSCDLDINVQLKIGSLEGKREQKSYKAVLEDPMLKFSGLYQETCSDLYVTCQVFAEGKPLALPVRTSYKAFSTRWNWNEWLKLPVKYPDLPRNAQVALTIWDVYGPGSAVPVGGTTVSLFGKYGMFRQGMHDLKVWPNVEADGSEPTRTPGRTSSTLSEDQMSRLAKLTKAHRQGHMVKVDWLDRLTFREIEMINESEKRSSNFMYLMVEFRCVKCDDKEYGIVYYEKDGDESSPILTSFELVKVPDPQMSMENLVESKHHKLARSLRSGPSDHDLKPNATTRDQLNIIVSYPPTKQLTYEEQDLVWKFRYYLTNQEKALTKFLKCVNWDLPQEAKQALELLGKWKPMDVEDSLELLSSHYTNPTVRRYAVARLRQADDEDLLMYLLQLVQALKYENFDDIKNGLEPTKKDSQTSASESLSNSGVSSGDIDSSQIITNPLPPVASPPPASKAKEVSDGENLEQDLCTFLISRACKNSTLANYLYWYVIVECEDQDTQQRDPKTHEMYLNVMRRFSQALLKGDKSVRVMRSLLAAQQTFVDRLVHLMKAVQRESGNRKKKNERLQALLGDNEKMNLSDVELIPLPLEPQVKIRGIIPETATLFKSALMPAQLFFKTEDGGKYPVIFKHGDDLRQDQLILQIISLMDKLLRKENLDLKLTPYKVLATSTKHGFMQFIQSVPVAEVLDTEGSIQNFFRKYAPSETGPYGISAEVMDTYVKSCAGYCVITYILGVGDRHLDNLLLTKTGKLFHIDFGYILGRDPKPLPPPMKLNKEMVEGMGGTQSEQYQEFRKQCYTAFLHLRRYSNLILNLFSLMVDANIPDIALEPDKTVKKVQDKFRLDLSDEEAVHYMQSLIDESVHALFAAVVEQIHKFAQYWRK

The test concerns the target endogenous Beclin 1 (MEFs) (mouse (endogenous in MEFs)) (UniProt O88597). Kind of test: co-IP; immunoprecipitation of endogenous Beclin 1 from MEFs or HEK293; immunoblots of endogenous Vps34, ATG14L or UVRAG; cells with or without 0.2 mg/ml T. orientalis extract for 4 h; mouse IgG as negative IP control. On the technique in general: In western blotting, separated proteins are transferred to a membrane and probed.

These are yes or no findings as the source states them, for the method shown. Binding seen in cells or lysates may run through a third protein. Some results given as binding are weak or reduced against the parent protein; the word gives no strength.

With “endogenous Vps34 (MEFs) (from UniProt Q6PF93 1-887) (enzyme)”, the binding result is listed as “binds”.
